Data taken from article doi:10.1101/2019.12.12.874503.
Results are given in words; binding and its absence hold for the method and conditions named. Binding seen in cells or lysates may run through a third protein. These calls come from enrichment with a bait or labelling near it, and not all partners need be listed. A no says only that the protein was not detected with the bait. Tags and fused reporters may be left off the sequences shown.

B1: AtpB (CF1 ATPase subunit) (protein, UniProt P06541 1-481)
chain: MSDSIETKNMGRIVQIIGPVLDIVFAKGQVPNIYNALTIRAKNSAGTEMAVTCEVQQLLGDNCVRAVSMNPTEGLMRGMEVVDTGKPLSVPVGKVTLGRIFNVLGEPVDNMGNVKVEETLPIHRTAPAFVDLDTRLSIFETGIKVVDLLAPYRRGGKIGLFGGAGVGKTVLIMELINNIAKAHGGVSVFAGVGERTREGNDLYTEMKESGVIVEKNLSDSKVALVYGQMNEPPGARMRVALTALTMAEYFRDVNKQDVLFFIDNIFRFVQAGAEVSALLGRMPSAVGYQPTLATEMGGLQERITSTKDGSITSIQAVYVPADDLTDPAPATTFAHLDATTVLSRNLAAKGIYPAVDPLESTSTMLQPWILGEKHYDSAQSVKKTLQRYKELQDIIAILGLDELSEEDRLIVARARKIERFLSQPFFVAEVFTGSPGKYVSLAETIEGFGKIFAGELDDLPEQAFYLVGNITEAISKAASLK
B2: uL23c (chloroplast-encoded Rpl23) (protein, UniProt Q8HTL3 1-95)
chain: MLDLVKYPVITQKTYIALFKDRQYTFDVDLRLTKPQIKKVFETLFNVDVISVNTHIPPRQKIRVGLAQGYRPRYKRAIITLKEGQSINYSLKNDN

Molecular target: T1, uL5c-HA (chloroplast-encoded ribosomal protein Rpl5 with C-terminal triple-HA tag) (Chlamydomonas reinhardtii) (UniProt Q8HTL1)
T1 sequence: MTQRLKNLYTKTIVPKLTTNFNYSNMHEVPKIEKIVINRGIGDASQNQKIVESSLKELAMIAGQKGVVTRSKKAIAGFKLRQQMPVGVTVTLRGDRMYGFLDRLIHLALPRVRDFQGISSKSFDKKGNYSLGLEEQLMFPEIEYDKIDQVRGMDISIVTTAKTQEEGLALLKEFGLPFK
Test: affinity purification with mass spectrometry

| Binder | binding |
| --- | --- |
| B1 | no binding |
| B2 | binds |
